Data source: PubChem BioAssay AID504804 (Drosophila RNAi Screening Center, 2011)

Screen: 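dsRNAs that improve Kc cell survival under doxorubicin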 (primary screen)
System: Drosophila Kc cells
Reagents: long dsRNA against Drosophila genes, 0.5 µg dsRNA per well
Timing: 96 h (48 h knock-down, then 48 h drug)
Conditions: doxorubicin 5 µg/ml for 48 h, added 48 h after dsRNA
Measurement: 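Viability measured as cellular ATP by luminescence after 48 h knock-down then 48 h doxorubicin at 5 µg/ml; unnormalised plate counts for each replicate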
Direction: raw ATP luminescence: higher = more viable cells, protection from doxorubicin
Hit rule: 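Active when both duplicate wells lie at least 2 SD above the plate mean and protection is confirmed by rescreening and independent dsRNAs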
In all, the deposit lists about 19,000 reagents; shown is a random part of those with a known target gene and a result. Over the whole deposit, 47 (0.25%) were called active. 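Signals are raw, not normalised; exact z-scores behind calls not deposited; actives needed confirmation, so some wells reaching 2 SD are inactive.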

What did the screen give for CG1077 [DRSC12146]?
raw ATP luminescence, replicate 1: 61100; raw ATP luminescence, replicate 2: 63303; outcome: inactive

What did the screen give for CG8500 [DRSC16434]?
raw ATP luminescence, replicate 1: 45997; raw ATP luminescence, replicate 2: 51897; outcome: inactive

With CG15876 [DRSC08484], how do the results read?
raw ATP luminescence, replicate 1: 88877; raw ATP luminescence, replicate 2: 87537; outcome: inactive

For IntS9 [DRSC10493], what was measured?
raw ATP luminescence, replicate 1: 19393; raw ATP luminescence, replicate 2: 31240; outcome: inactive

With Synj [DRSC04526], how do the results read?
raw ATP luminescence, replicate 1: 63907; raw ATP luminescence, replicate 2: 59263; outcome: inactive

With Arl2 [DRSC14117], what does the deposit list?
raw ATP luminescence, replicate 1: 57413; raw ATP luminescence, replicate 2: 58510; outcome: inactive

For mor [DRSC15378], what was measured?
raw ATP luminescence, replicate 1: 70300; raw ATP luminescence, replicate 2: 71430; outcome: inactive

What did the screen give for Tlk [DRSC17731]?
raw ATP luminescence, replicate 1: 28140; raw ATP luminescence, replicate 2: 30240; outcome: inactive

For Tlk [DRSC17835], what was measured?
raw ATP luminescence, replicate 1: 16030; raw ATP luminescence, replicate 2: 16550; outcome: inactive

How did the screen score Phk-3 [DRSC04547]?
raw ATP luminescence, replicate 1: 46670; raw ATP luminescence, replicate 2: 52343; outcome: inactive

For ND-B12 [DRSC04060], how do the results read?
raw ATP luminescence, replicate 1: 65757; raw ATP luminescence, replicate 2: 67853; outcome: inactive

Which result is listed for Eph [DRSC17164]?
raw ATP luminescence, replicate 1: 52100; raw ATP luminescence, replicate 2: 59000; outcome: inactive

What did the screen give for Hk [DRSC17638]?
raw ATP luminescence, replicate 1: 1.11e5; raw ATP luminescence, replicate 2: 1.17e5; outcome: inactive

For Hk [DRSC18674], how do the results read?
raw ATP luminescence, replicate 1: 3.97e5; raw ATP luminescence, replicate 2: 3.94e5; outcome: inactive

With CG8329 [DRSC10978], how do the results read?
raw ATP luminescence, replicate 1: 36513; raw ATP luminescence, replicate 2: 33180; outcome: inactive

What is on record for Muc91C [DRSC16297]?
raw ATP luminescence, replicate 1: 55990; raw ATP luminescence, replicate 2: 68000; outcome: inactive

With RpS12 [DRSC11270], what was measured?
raw ATP luminescence, replicate 1: 37123; raw ATP luminescence, replicate 2: 35763; outcome: inactive

How did the screen score CG13137 [DRSC02234]?
raw ATP luminescence, replicate 1: 46720; raw ATP luminescence, replicate 2: 57973; outcome: inactive

How did the screen score Chi [DRSC04602]?
raw ATP luminescence, replicate 1: 58030; raw ATP luminescence, replicate 2: 55307; outcome: inactive

How did the screen score CG33257 [DRSC09917]?
raw ATP luminescence, replicate 1: 58937; raw ATP luminescence, replicate 2: 52757; outcome: inactive

For mts [DRSC03574], what was measured?
raw ATP luminescence, replicate 1: 54137; raw ATP luminescence, replicate 2: 44537; outcome: inactive

For CG4950 [DRSC10463], how do the results read?
raw ATP luminescence, replicate 1: 70253; raw ATP luminescence, replicate 2: 68187; outcome: inactive

What is on record for CG32106 [DRSC09219]?
raw ATP luminescence, replicate 1: 80720; raw ATP luminescence, replicate 2: 79330; outcome: inactive

What did the screen give for vlc [DRSC04922]?
raw ATP luminescence, replicate 1: 48397; raw ATP luminescence, replicate 2: 44730; outcome: inactive

How did the screen score Cad74A [DRSC10636]?
raw ATP luminescence, replicate 1: 55930; raw ATP luminescence, replicate 2: 55020; outcome: inactive

How did the screen score Remo [DRSC19710]?
raw ATP luminescence, replicate 1: 3.16e5; raw ATP luminescence, replicate 2: 3.21e5; outcome: inactive

For Eip63F-1 [DRSC08072], how do the results read?
raw ATP luminescence, replicate 1: 1.89e5; raw ATP luminescence, replicate 2: 1.44e5; outcome: inactive

With Eip63F-1 [DRSC08659], what was measured?
SD above plate mean: 2 to 3 SD above plate mean; outcome: active

For CG31544 (retired record) [DRSC12466], how do the results read?
raw ATP luminescence, replicate 1: 20850; raw ATP luminescence, replicate 2: 63350; outcome: inactive

What is on record for CG5515 [DRSC15825]?
raw ATP luminescence, replicate 1: 35397; raw ATP luminescence, replicate 2: 50637; outcome: inactive

What did the screen give for Gnmt [DRSC15987]?
raw ATP luminescence, replicate 1: 55777; raw ATP luminescence, replicate 2: 48357; outcome: inactive

What is on record for spz6 [DRSC04533]?
raw ATP luminescence, replicate 1: 54897; raw ATP luminescence, replicate 2: 68640; outcome: inactive

For ND-13A [DRSC03110], what was measured?
raw ATP luminescence, replicate 1: 26593; raw ATP luminescence, replicate 2: 32980; outcome: inactive

Which result is listed for CG10859 [DRSC02110]?
raw ATP luminescence, replicate 1: 89210; raw ATP luminescence, replicate 2: 69047; outcome: inactive

What is on record for CG31789 [DRSC01645]?
raw ATP luminescence, replicate 1: 2.92e5; raw ATP luminescence, replicate 2: 2.55e5; outcome: inactive

For ng1 [DRSC18802], what does the deposit list?
raw ATP luminescence, replicate 1: 43830; raw ATP luminescence, replicate 2: 45170; outcome: inactive
